In PMC12622526:
No constants are given. Whether binding was seen depends on the method and setting. In cells and extracts the contact can be indirect. These calls come from enrichment with a bait or labelling near it, and not all partners need be listed. Sequences can lack the tags named with a protein.

Biological target: COA4‐Flag (human cytochrome c oxidase assembly factor 4), transfected in A549 cells (human) (UniProt Q9NYJ1)
Experiment: affinity purification with mass spectrometry; A549 cells transfected with Flag‐COA4 for 48 h; anti‐FLAG immunoprecipitation (Pierce Co‐IP Kit), SDS‐PAGE bands analysed by LC‐MS/MS

binding: binds
B1: SLC25A3 (protein, UniProt Q00325 50-362)
chain: AVEEQYSCDYGSGRFFILCGLGGIISCGTTHTALVPLDLVKCRMQVDPQKYKGIFNGFSVTLKEDGVRGLAKGWAPTFLGYSMQGLCKFGFYEVFKVLYSNMLGEENTYLWRTSLYLAASASAEFFADIALAPMEAAKVRIQTQPGYANTLRDAAPKMYKEEGLKAFYKGVAPLWMRQIPYTMMKFACFERTVEALYKFVVPKPRSECSKPEQLVVTFVAGYIAGVFCAIVSHPADSVVSVLNKEKGSSASLVLKRLGFKGVWKGLFARIIMIGTLTALQWFIYDSVKVYFRLPRPPPPEMPESLKKKLGLTQ
